PubChem BioAssay AID504744 | Drosophila RNAi Screening Center | 2011
The screen tested about 23,000 reagents; below is an unselected part of those that have a named target and a result. Of all reagents, 98 (0.43%) got an active call. 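Only hit calls are given; the phospho-dAkt signals, z-scores and hit direction were not deposited.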 Names joined by + are all predicted targets of the reagent.

Aim: 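Find genes whose loss alters insulin-driven dAkt phosphorylation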 (primary screen)
Cells: Drosophila Kc167 cells
Knock-down reagent: long dsRNA against Drosophila genes, 250 ng dsRNA per well of a 384-well plate
Time to read-out: 3 days of knock-down, then overnight serum-free starvation before stimulation
Conditions: bovine insulin at 387 nM for 10 minutes after 12 h without serum
Read-out: 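In-cell antibody fluorescence for phospho-dAkt in each well over DNA-dye signal, with log2 residuals expressed as z-scores adjusted for cell count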
Active means: 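Under insulin, a gene counts as a hit if the average z-score of two replicates lies above 2.5 or below -2.5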

target gene | amplicon | activity call
Mur18B | DRSC20063 | inactive
CG42355 | DRSC07967 | inactive
CG9426 | DRSC03219 | inactive
yellow-e | DRSC12966 | inactive
yellow-e | DRSC16563 | inactive
Dp | DRSC07402 | inactive
aqrs | DRSC14724 | inactive
Dus4 | DRSC02066 | inactive
Ugt37D1 | DRSC02645 | inactive
CG5139 | DRSC00681 | inactive
Nmnat | DRSC14644 | inactive
Lcp9 | DRSC04287 | inactive
BNIP3 | DRSC11761 | inactive
CG32767 | DRSC18386 | inactive
Atac2 | DRSC02053 | inactive
Ufd4 | DRSC02871 | inactive
CG14332 | DRSC14811 | inactive
CG33958 | DRSC06472 | inactive
CG33958 | DRSC06944 | inactive
eIF4EHP | DRSC13653 | inactive
eIF4EHP | DRSC14265 | inactive
Jhbp6 | DRSC11714 | inactive
CG30430 | DRSC22260 | inactive
CCKLR-17D1 | DRSC20010 | inactive
CCKLR-17D1 | DRSC20011 | inactive
CCKLR-17D1 | DRSC20012 | inactive
Rsph4a | DRSC04338 | inactive
CG33453 | DRSC05782 | inactive
CG18744 | DRSC15381 | inactive
CG15412 | DRSC00427 | inactive
chm | DRSC03341 | inactive
ND-30 | DRSC08243 | inactive
CG13748 | DRSC06419 | inactive
CG30495 | DRSC06703 | inactive
tous | DRSC04464 | inactive
CG12479 | DRSC19459 | inactive
CG11125 | DRSC06042 | inactive
GMF | DRSC01928 | inactive
Pde11 | DRSC02028 | inactive
Pde11 | DRSC02460 | inactive
CG13721 | DRSC08330 | inactive
CG15529 | DRSC15066 | inactive
Tim8 | DRSC20291 | inactive
CG13700 | DRSC10049 | inactive
CG30349 | DRSC06421 | inactive
CG30349 | DRSC06839 | inactive
Rsod | DRSC15424 | inactive
Spf30 | DRSC11976 | inactive
CG14565 | DRSC11726 | inactive
CG7747 | DRSC07038 | inactive
CG5515 | DRSC15825 | inactive
Scp2 | DRSC13166 | inactive
Scp2 | DRSC16854 | inactive
CG31835 + CG42585 | DRSC01412 | inactive
CG6118 | DRSC15968 | inactive
CG4049 | DRSC04443 | inactive
CG6937 | DRSC16140 | inactive
CG7992 | DRSC20070 | inactive
mRpL45 | DRSC16146 | inactive
E(spl)m5-HLH | DRSC16695 | inactive
ArfGAP3 | DRSC11794 | inactive
Ref2 | DRSC02563 | inactive
CG15083 | DRSC06514 | inactive
RpL15 | DRSC20963 | inactive
CG7458 | DRSC11829 | inactive
CG7458 | DRSC21340 | inactive
CG1637 | DRSC18865 | inactive
CG1637 | DRSC19748 | inactive
CG1637 | DRSC19749 | inactive
CG30432 | DRSC04833 | inactive
Or45b | DRSC07488 | inactive
CG30398 | DRSC03891 | inactive
CG30334 | DRSC05345 | inactive
CG9399 | DRSC16488 | inactive
CG13044 | DRSC09925 | inactive
CG31076 | DRSC16017 | inactive
grh | DRSC05680 | inactive
grh | DRSC05683 | inactive
grh | DRSC07624 | inactive
grh | DRSC07625 | inactive
Fkbp14 | DRSC04615 | inactive
Ir48a | DRSC05301 | inactive
CG8067 | DRSC07065 | inactive
Fam92 | DRSC02952 | inactive
CG13023 | DRSC09454 | inactive
CG13023 | DRSC09903 | inactive
Myo10A | DRSC19834 | inactive
Myo10A | DRSC19837 | inactive
CG12929 | DRSC06242 | inactive
CG9757 | DRSC16557 | inactive
CG9757 | DRSC21707 | inactive
Chd1 | DRSC00745 | inactive
CG15120 | DRSC06542 | inactive
CCHa1-R | DRSC06456 | inactive
CCHa1-R | DRSC06715 | inactive
CG7755 | DRSC07040 | inactive
CG11885 | DRSC00329 | inactive
CG6276 | DRSC16007 | inactive
CG12360 (retired record) | DRSC14505 | inactive
CG6495 | DRSC01993 | inactive
PIG-B | DRSC08216 | inactive
PIG-B | DRSC22598 | inactive
CG15888 | DRSC15125 | inactive
ema | DRSC14536 | inactive
zfh1 | DRSC14014 | inactive
zfh1 | DRSC17098 | inactive
CG5281 | DRSC15761 | inactive
Obp58d | DRSC04162 | inactive
CG10077 | DRSC09691 | inactive
CG5989 | DRSC10565 | inactive
Spn42Dc | DRSC05010 | inactive
nompC | DRSC03581 | inactive
CG34386 | DRSC06467 | inactive
CG34386 | DRSC06468 | inactive
Rabex-5 | DRSC08628 | inactive
CG13566 | DRSC04203 | inactive
CG14861 | DRSC14984 | inactive
CG15337 | DRSC18020 | inactive
CG15337 | DRSC22778 | inactive
CG34025 | DRSC08014 | inactive
Trs33 | DRSC15990 | inactive
CG12535 | DRSC17838 | inactive
Tsp42Ek | DRSC06187 | inactive
hwt | DRSC19386 | inactive
CG12782 | DRSC04127 | inactive
CG33230 | DRSC08602 | inactive
CG15800 | DRSC04271 | inactive
CG11050 | DRSC02125 | inactive
ng2 | DRSC18803 | inactive
Rbsn-5 | DRSC03094 | inactive
CG13869 + CG11099 | DRSC06428 | inactive
trr | DRSC18845 | inactive
FMRFa | DRSC07428 | inactive
GluRIB + CG42509 (retired record) | DRSC10258 | inactive
GluRIB + CG42509 (retired record) | DRSC11177 | inactive
CG32121 | DRSC09265 | inactive
CG13054 | DRSC09935 | inactive
CG4691 | DRSC01950 | inactive
Ifrd1 | DRSC00415 | inactive
Ifrd1 | DRSC00566 | inactive
CG31210 (retired record) + CG4836 | DRSC22066 | inactive
Rpn9 | DRSC16840 | inactive
TwdlH | DRSC14735 | inactive
CG17612 | DRSC00505 | inactive
MED10 | DRSC10474 | inactive
CG34337 | DRSC18435 | inactive
CG7213 | DRSC10787 | inactive
CG9915 | DRSC21565 | inactive
COX4 | DRSC02091 | inactive
CG7378 | DRSC20041 | inactive
CG13984 | DRSC02316 | inactive
CG13377 | DRSC18622 | inactive
Sec3 | DRSC10384 | inactive
Moca-cyp | DRSC15364 | inactive
Oamb | DRSC13433 | inactive
Oamb | DRSC15120 | inactive
Oamb | DRSC16763 | inactive
CG7379 | DRSC16237 | inactive
GstE8 | DRSC06678 | inactive
Top3beta | DRSC18724 | inactive
CG30269 | DRSC04158 | inactive
CG1142 | DRSC12531 | inactive
Sec6 | DRSC06932 | inactive
STUB1 | DRSC03282 | inactive
scaf6 | DRSC10075 | inactive
scaf6 | DRSC10676 | inactive
scaf6 | DRSC10678 | inactive
CG9902 | DRSC20212 | inactive
Oseg5 | DRSC03209 | inactive
beg | DRSC10923 | inactive
CG34160 | DRSC01131 | inactive
CG11170 | DRSC04090 | inactive
Ip6k | DRSC04054 | inactive
AANATL3 | DRSC02089 | inactive
Mhcl | DRSC13130 | inactive
Mhcl | DRSC14216 | inactive
Mhcl | DRSC16753 | inactive
loqs | DRSC02997 | inactive
CG12817 + CG12420 | DRSC22814 | inactive
PNUTS | DRSC00638 | inactive
PNUTS | DRSC22136 | inactive
GluRIID | DRSC16723 | inactive
TpnC25D | DRSC02965 | inactive
His-Psi:CR31754 | DRSC22051 | inactive
mfrn | DRSC15687 | inactive
CG45263 | DRSC12682 | inactive
CG45263 | DRSC14360 | inactive
CG45263 | DRSC14361 | inactive
CG45263 | DRSC14363 | inactive
CG1314 | DRSC20495 | inactive
Ugt37E1 | DRSC02248 | inactive
Gr93b | DRSC22063 | inactive
Khc-73 | DRSC07449 | inactive
sle + CG12592 | DRSC21387 | inactive
Gcat | DRSC09719 | inactive
Ag5r | DRSC19327 | inactive
Nbr | DRSC03166 | inactive
CG3939 | DRSC18498 | inactive
RpL13 | DRSC03416 | inactive
Alp10 | DRSC09749 | inactive

Reformatted: results already given
CG13023 [DRSC09903] | activity call: inactive
Myo10A [DRSC19834] | activity call: inactive
Myo10A [DRSC19837] | activity call: inactive
CG12929 [DRSC06242] | activity call: inactive
CG9757 [DRSC16557] | activity call: inactive
CG9757 [DRSC21707] | activity call: inactive
Chd1 [DRSC00745] | activity call: inactive
CG15120 [DRSC06542] | activity call: inactive
CCHa1-R [DRSC06456] | activity call: inactive
CCHa1-R [DRSC06715] | activity call: inactive
CG7755 [DRSC07040] | activity call: inactive
CG11885 [DRSC00329] | activity call: inactive
CG6276 [DRSC16007] | activity call: inactive
CG12360 (retired record) [DRSC14505] | activity call: inactive
CG6495 [DRSC01993] | activity call: inactive
PIG-B [DRSC08216] | activity call: inactive
PIG-B [DRSC22598] | activity call: inactive
CG15888 [DRSC15125] | activity call: inactive
ema [DRSC14536] | activity call: inactive
zfh1 [DRSC14014] | activity call: inactive
zfh1 [DRSC17098] | activity call: inactive
CG5281 [DRSC15761] | activity call: inactive
Obp58d [DRSC04162] | activity call: inactive
CG10077 [DRSC09691] | activity call: inactive
CG5989 [DRSC10565] | activity call: inactive
Spn42Dc [DRSC05010] | activity call: inactive
nompC [DRSC03581] | activity call: inactive
CG34386 [DRSC06467] | activity call: inactive
CG34386 [DRSC06468] | activity call: inactive
Rabex-5 [DRSC08628] | activity call: inactive
CG13566 [DRSC04203] | activity call: inactive
CG14861 [DRSC14984] | activity call: inactive
